The results in this text go back to PMC11653682.

This assay has as its target T1, aspartate aminotransferase (GOT2) (not stated (cells of the IP not named; H9C2 in the neighbouring experiments)) (UniProt P00507).
T1 sequence: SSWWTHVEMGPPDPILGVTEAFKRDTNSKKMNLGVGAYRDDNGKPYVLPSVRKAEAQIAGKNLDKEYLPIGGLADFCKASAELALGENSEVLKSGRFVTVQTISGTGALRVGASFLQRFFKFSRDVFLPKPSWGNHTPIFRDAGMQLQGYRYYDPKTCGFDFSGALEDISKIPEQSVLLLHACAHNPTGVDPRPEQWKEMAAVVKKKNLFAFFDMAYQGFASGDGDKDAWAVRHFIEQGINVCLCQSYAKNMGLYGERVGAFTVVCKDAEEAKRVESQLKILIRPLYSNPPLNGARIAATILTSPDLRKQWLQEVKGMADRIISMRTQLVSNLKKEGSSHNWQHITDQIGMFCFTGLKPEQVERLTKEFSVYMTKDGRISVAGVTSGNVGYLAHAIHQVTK
The experiment in a line: co-IP; IP of GOT2, partners detected by Western blotting; cells not named; X-ray or aloe emodin treatment.

These are yes or no findings as the source states them, for the method shown. In cells and extracts the contact can be indirect. Binding calls can cover weak binding; strength is not graded here.

With ATG16L, the binding result is recorded as “binds”.
